# These are yes or no findings as the source states them, for the method shown. Some entries that bind do so weakly or less than the wild type.
# By UniProt entry, the sequences of proteins in these tests, tags left out. Residues count along the entry.
# ROR1 antigen (Q01973, residues 30-403): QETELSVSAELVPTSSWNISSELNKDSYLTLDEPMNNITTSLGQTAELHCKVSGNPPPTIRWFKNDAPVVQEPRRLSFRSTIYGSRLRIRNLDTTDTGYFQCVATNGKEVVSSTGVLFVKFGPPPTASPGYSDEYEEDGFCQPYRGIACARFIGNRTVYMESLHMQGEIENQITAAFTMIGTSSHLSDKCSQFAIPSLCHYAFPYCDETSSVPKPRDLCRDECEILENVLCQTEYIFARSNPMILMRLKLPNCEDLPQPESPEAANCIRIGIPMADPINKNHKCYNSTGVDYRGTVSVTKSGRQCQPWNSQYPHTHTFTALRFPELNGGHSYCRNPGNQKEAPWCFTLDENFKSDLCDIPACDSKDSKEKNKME
# ROR1 protein (ACROBiosystems, Cat# RO1-H5223) (Q01973, residues 308-395): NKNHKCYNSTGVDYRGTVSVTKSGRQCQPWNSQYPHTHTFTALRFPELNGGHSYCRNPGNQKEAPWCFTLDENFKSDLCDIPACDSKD
# Tests used:
# [1] = target: ROR1 antigen (UniProt Q01973); experiment: BLI
# [2] = target: ROR1 protein (ACROBiosystems, Cat# RO1-H5223) (UniProt Q01973); experiment: ELISA
Binder,binding [1],binding [2]
"humanized antibody hu17-H2L1 (antibody, human IgG1, kappa, L234A L235A, V domains shown) VH: EVTLKESGPTLVKPTQTLTLTCSFSGFSLSTSGMGVAWIRQPPGKALEWLAHIWWDDDKRYNPALKSRLTITKDTSKNQVVLTITNVDPVDTATYYCARPQFITTVVAFYWYFDVWGQGTTVTVSS VL: DILLTQSPSSLSVSVGDRVTITCRASENIYSNLAWYQQKPGKAPKLLVYAATNLADGVPSRFSGSGSGTQYTLTISSLQPEDFATYYCQHFWGTPWTFGGGTKLEIKR",binds,binds
"humanized antibody hu17-H3L1 (antibody, human IgG1, kappa, L234A L235A, V domains shown) VH: QVTLKESGPTLVKPTQTLTLTCSFSGFSLSTSGMGVAWIRQPPGKALEWLAHIWWDDDKRYNPSLKSRLTITKDTSKNQVVLTMTNMDPVDTATYYCARPQFITTVVAFYWYFDVWGQGTTVTVSS VL: DILLTQSPSSLSVSVGDRVTITCRASENIYSNLAWYQQKPGKAPKLLVYAATNLADGVPSRFSGSGSGTQYTLTISSLQPEDFATYYCQHFWGTPWTFGGGTKLEIKR",binds,binds
"humanized antibody hu17-H4L1 (antibody, human IgG1, kappa, L234A L235A, V domains shown) VH: QVTLKESGPTLVKPTQTLTLTCTFSGFSLSTSGMGVAWIRQPPGKALEWLAHIWWDDDKRYGPSLKSRLTITKDTSKNQVVLTMTNMDPVDTATYYCARPQFITTVVAFYWYFDVWGQGTTVTVSS VL: DILLTQSPSSLSVSVGDRVTITCRASENIYSNLAWYQQKPGKAPKLLVYAATNLADGVPSRFSGSGSGTQYTLTISSLQPEDFATYYCQHFWGTPWTFGGGTKLEIKR",binds,binds
"murine antibody 17-F12-G8-A6 (antibody, V domains shown) VH: EVTLKESGPGILQPSQTLSLTCSFSGFSLSTSGMGVAWIRQPSGKGLEWLAHIWWDDDKRYNPALKSRLTISKDTSSNQVFLKIASVDTADTATYYCARPQFITTVVAFYWYFDVWGAGTTVTVSS VL: DILLTQSPASLSVSMGETVTITCRASENIYSNLAWYQQKQGKSPQLLVYAATNLADGVPSRFSGSGSGTQYSLKINSLQSEDFGSYYCQHFWGTPWTFGGGTKLEIK",binds,–
